Laboratory results as given in paper PMC11587861, “A high-throughput search for intracellular factors that affect RNA folding identifies E. coli proteins PepA and YagL as RNA chaperones that promote RNA remodelling”.

What was measured:
[1] = biological target: T1, YagL-HTH (UniProt P77607); test: filter binding; conditions: 75 mM Tris-HCl pH 7.5, 0.4 mM spermidine, 0.1 mM MgCl2, 50 mM NaCl, 0.5 mM EDTA, 0.25 mM DTT, 6% glycerol, 10 min at room temperature, 50 fmol RNA in 60 µL, recombinant protein, residues 187-232, label: 5'-32P (printed as [31]P)
T1 sequence (looked up): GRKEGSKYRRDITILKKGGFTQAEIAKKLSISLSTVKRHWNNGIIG

[2] = biological target: T2, YagL-dHTH (UniProt P77607); test: filter binding; conditions: minimal binding at any tested concentration; 75 mM Tris-HCl pH 7.5, 0.4 mM spermidine, 0.1 mM MgCl2, 50 mM NaCl, 0.5 mM EDTA, 0.25 mM DTT, 6% glycerol; 10 min at room temperature; 50 fmol RNA in 60 µL; recombinant protein; residues 1-186; label: 5'-32P (printed as [31]P)
T2 sequence (looked up): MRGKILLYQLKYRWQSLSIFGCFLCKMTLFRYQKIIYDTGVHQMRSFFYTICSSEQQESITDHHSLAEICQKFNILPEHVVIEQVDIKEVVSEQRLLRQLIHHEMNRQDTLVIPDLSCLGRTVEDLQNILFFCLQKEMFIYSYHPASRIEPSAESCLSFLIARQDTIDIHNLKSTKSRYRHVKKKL

AUGUGGAAAAUCUCUAGCAGU [21 R+]: binds ([1]; Hill coefficient 2.1 ± 0.5, range given over all three RNAs, ssRNA twofold tighter than hairpin).
CUGCUAGAGAUUUUCCACAU [21 R-]: binds ([1]; Hill coefficient 2.4 ± 0.6, range given over all three RNAs, ssRNA twofold tighter than hairpin).
GCUCUAGAGCAUUAUGUUCAGAUAAGG [hairpin]: binds ([1]; Hill coefficient 1.8 ± 0.3, range given over all three RNAs, twofold weaker than ssRNAs); binds more weakly [2].

The exact form of at least one protein or probe is not confirmed. For some of these results: The comparison behind a weaker result is the experiment's own reference, which may not be listed here. At least one verdict rests on a figure or table, not on a statement of the authors. Tags and fusion partners may be left off the protein sequences shown.
